According to patent US20080194611A1, “Modulation of Cell Barrier Dysfunction” (priority 2005, published 2008):

Assays:
[1] = meta-analysis; cited from earlier work
MDCK cells = assay type: cell-based

## CN1CC[C@]23c4c5ccc(O)c4O[C@H]2[C@@H](O)C=C[C@H]3[C@H]1C5 [morphine]
[1]
  dose-adjusted Cmax: 1-10 nM/L per mg of morphine
MDCK cells
  additional TEER decrease: about 15%
